Source: US20260078197A1

Target: His-tagged monkey TFR1 protein (monkey (Macaca fascicularis))
Test: SPR, Biacore 8K

- binding: binds
B1: 23B8 (antibody, V domains shown)
VH: QVTLKESGGGLVKPGGSLRLSCAASGFPFSNAWMNWVRQAPGKGLEWVGHIKSKTDGGTTDYAAPVKGRFTISRDDSKNMVFLQMNSLKTEDTAVYYCTTDRAYCGGDCSHYYYHDLDVWGQGTTVTVSS

- binding: binds
B2: 24A1 (antibody, human IgG1, V domains shown)
VH: EVQLVESGGGLVQPGGSLRLTCAASGFTFSSYAMSWVRQAPGKGLERVSEISGSGSSTNYADSVKGRFTISRDNSKNTLYLQMNSLRAEDTAVYYCAKDDSSGWAFNIWDQGTVVTVSS

- binding: binds
B3: 24G5 (antibody, human IgG1, V domains shown)
VH: B2 VH with E1Q, V2L, V5Q, Y32F, G53D, S56G, S57N, N59Y

Positions count from the first letter of the chain named. No constants are given. Whether binding was seen depends on the method and setting. Binding can be weak; no strength is given. One block for each binder: values may come before it.
